Laboratory results: PubChem BioAssay AID1259308 (NCATS, 2017)

- Assay: 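Candidate targets for better recombinant protein yield in mammalian cells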 (primary screen)
- System: human HEK293 embryonic kidney cells stably expressing firefly luciferase (HEK-CMV-Luc2-Hygro)
- Knock-down reagent: single siRNA against human genes, 0.8 pmol siRNA per well
- Timing: 72 h
- Measured: 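Luciferase light (ONE-Glo) measured on one replicate plate set and viability (CellTiter-Glo) on the other, scaled to a negative control siRNA, with robust z-scores and luciferase per cell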
- Scale: total luciferase, z-score and total luciferase, % of control: higher = more reporter protein produced; luciferase per cell, z-score: higher = more reporter output per viable cell; viable cells, % of control: higher = more viable cells
- Call rule: 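Active when the median/MAD z-score for overall luciferase is greater than 3; a gene was taken forward for validation with new siRNAs if at least two of its three siRNAs passed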
- Meaning of the calls: active = raised luciferase; inactive = no rise
The whole screen tested about 59,000 reagents; below is a random part of them. Over the whole deposit, about 1,510 (2.6%) are marked active. 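Calls use total luciferase alone and ignore viability, so some active siRNAs may act by altering cell number.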 A number with no mark means an inactive call. The numbers tell different reagents against one gene apart. Reagent sequences are not shown.

gene knocked down | siRNA no. | total luciferase, z-score | total luciferase, % of control | luciferase per cell, z-score | viable cells, % of control
REXO1 (RNA exonuclease 1 homolog) | 1 | -1.17 | 58.5 | -0.796 | 80.6
REXO1 (RNA exonuclease 1 homolog) | 2 | -0.848 | 65 | -0.668 | 86.6
REXO1 (RNA exonuclease 1 homolog) | 3 | 0.837 | 98.5 | 0.292 | 102
IGLON5 (IgLON family member 5) | 1 | 0.226 | 86.4 | 0.597 | 82.5
IGLON5 (IgLON family member 5) | 2 | -0.951 | 63 | -0.694 | 84.5
IGLON5 (IgLON family member 5) | 3 | -0.77 | 66.6 | -1.21 | 102
HMGB1 (high mobility group box 1) | 1 | 1.59 | 113 | 0.662 | 106
HMGB1 (high mobility group box 1) | 2 | 0.459 | 91 | -0.388 | 113
HMGB1 (high mobility group box 1) | 3 | 0.357 | 89 | 0.171 | 95.1
FSHR (follicle stimulating hormone receptor) | 1 | -1.23 | 57.4 | -0.615 | 75.5
FSHR (follicle stimulating hormone receptor) | 2 | -0.771 | 66.5 | 0.292 | 68.9
FSHR (follicle stimulating hormone receptor) | 3 | 0.239 | 86.6 | -0.135 | 100
DNAH11 (dynein axonemal heavy chain 11) | 1 | -0.397 | 74 | -0.947 | 106
DNAH11 (dynein axonemal heavy chain 11) | 2 | -0.526 | 71.4 | -0.00998 | 80
DNAH11 (dynein axonemal heavy chain 11) | 3 | -0.141 | 79.1 | -0.597 | 103

4 of these entries, reformatted:
{"gene knocked down": "FSHR (follicle stimulating hormone receptor)", "siRNA no.": 3, "total luciferase, z-score": 0.239, "total luciferase, % of control": 86.6, "luciferase per cell, z-score": -0.135, "viable cells, % of control": 100}
{"gene knocked down": "DNAH11 (dynein axonemal heavy chain 11)", "siRNA no.": 1, "total luciferase, z-score": -0.397, "total luciferase, % of control": 74, "luciferase per cell, z-score": -0.947, "viable cells, % of control": 106}
{"gene knocked down": "DNAH11 (dynein axonemal heavy chain 11)", "siRNA no.": 2, "total luciferase, z-score": -0.526, "total luciferase, % of control": 71.4, "luciferase per cell, z-score": -0.00998, "viable cells, % of control": 80}
{"gene knocked down": "DNAH11 (dynein axonemal heavy chain 11)", "siRNA no.": 3, "total luciferase, z-score": -0.141, "total luciferase, % of control": 79.1, "luciferase per cell, z-score": -0.597, "viable cells, % of control": 103}

Next results follow:
gene knocked down | siRNA no. | total luciferase, z-score | total luciferase, % of control | luciferase per cell, z-score | viable cells, % of control
DLL4 (delta like canonical Notch ligand 4) | 1 | 0.595 | 93.7 | 1 | 80.4
DLL4 (delta like canonical Notch ligand 4) | 2 | -0.304 | 75.8 | 0.339 | 77.5
DLL4 (delta like canonical Notch ligand 4) | 3 | 0.904 | 99.9 | 1.07 | 84.3
CTBP1-DT (CTBP1 divergent transcript) | 1 | 0.176 | 85.4 | 0.425 | 85.3
CTBP1-DT (CTBP1 divergent transcript) | 2 | -0.111 | 79.7 | -0.00117 | 89.1
CTBP1-DT (CTBP1 divergent transcript) | 3 | 0.203 | 85.9 | -0.299 | 104
ANKRD22 (ankyrin repeat domain 22) | 1 | -2 | 42.1 | -2.69 | 95.7
ANKRD22 (ankyrin repeat domain 22) | 2 | -1.21 | 57.7 | -1.32 | 91.3
ANKRD22 (ankyrin repeat domain 22) | 3 | 0.718 | 96.2 | 0.865 | 85.6
